The supplement of paper PMC6078165

Tested on: BT20
Assay: relative JC-1 red fluorescence (viability) vs pre-drug, coculture with fibroblast (fraction); higher = more viable cancer cells
Method: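 JC-1 labelled TNBC cells cocultured 1:1 (1,500 cells each) with CellTrace Violet stained primary or stromal fibroblasts in 384-well plates in FluoroBrite medium, treated with one of 42 anticancer drugs at 0.1, 1, 10 or 100 uM. JC-1 red fluorescence (mitochondrial integrity in cancer cells only) was read by plate reader every 8 h for 72 h. Values are normalised to each well's pre-drug value. The stock of one drug was tenfold lower, so its dose labels may be too high.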

COc1cc([C@@H]2c3cc4c(cc3[C@@H](O[C@@H]3O[C@@H]5CO[C@@H](C)O[C@H]5[C@H](O)[C@H]3O)[C@H]3COC(=O)[C@H]23)OCO4)cc(OC)c1O [Etoposide]
relative JC-1 red fluorescence
Details	8 h	16 h	24 h	32 h	40 h	48 h	56 h	64 h	72 h
0.1 µM, coculture fibroblast: C12385	0.867	0.798	0.769	0.717	0.655	0.629	0.615	0.6081	0.611
0.1 µM, coculture fibroblast: H6013	0.8986	0.823	0.789	0.732	0.694	0.68	0.689	0.677	0.662
0.1 µM, coculture fibroblast: H6019	0.855	0.797	0.77	0.715	0.667	0.658	0.627	0.593	0.582
0.1 µM, coculture fibroblast: H6076	0.87	0.892	0.811	0.773	0.74	0.712	0.709	0.712	0.705
0.1 µM, coculture fibroblast: H6231	0.939	0.875	0.801	0.748	0.704	0.66	0.643	0.627	0.605
0.1 µM, coculture fibroblast: HADF	0.943	0.892	0.856	0.807	0.793	0.755	0.748	0.746	0.727
0.1 µM, coculture fibroblast: HCFa	0.925	0.861	0.815	0.76	0.723	0.691	0.668	0.644	0.61
0.1 µM, coculture fibroblast: HCPF	0.984	0.8993	0.827	0.784	0.766	0.732	0.699	0.696	0.678
0.1 µM, coculture fibroblast: HHSteC	0.926	0.912	0.905	0.836	0.793	0.768	0.752	0.742	0.718
0.1 µM, coculture fibroblast: HMF	0.7815	0.896	0.76	0.694	0.645	0.605	0.576	0.558	0.534
0.1 µM, coculture fibroblast: HPFa	0.92669	0.884	0.878	0.795	0.765	0.718	0.705	0.68	0.632
0.1 µM, coculture fibroblast: HUF	0.866	0.806	0.792	0.714	0.659	0.627	0.621	0.605	0.596
0.1 µM, coculture fibroblast: Hs5	0.973	0.879	0.826	0.784	0.749	0.722	0.707	0.685	0.671
0.1 µM, coculture fibroblast: Hs27A	0.843	0.898	0.9507	0.944	0.911	0.9039	0.894	0.864	0.832
0.1 µM, coculture fibroblast: Hs343T	0.959	0.842	0.738	0.67	0.632	0.597	0.583	0.58	0.562
0.1 µM, coculture fibroblast: WS1	0.8515	0.775	0.729	0.655	0.606	0.567	0.538	0.516	0.508
1 µM, coculture fibroblast: C12385	0.871	0.7837	0.744	0.677	0.631	0.607	0.581	0.568	0.565
1 µM, coculture fibroblast: H6013	0.9113	0.887	0.885	0.847	0.832	0.837	0.863	0.86	0.854
1 µM, coculture fibroblast: H6019	0.844	0.7858	0.803	0.7592	0.7216	0.712	0.685	0.665	0.658
1 µM, coculture fibroblast: H6076	0.9534	0.878	0.7923	0.755	0.719	0.684	0.677	0.672	0.656
1 µM, coculture fibroblast: H6231	0.912	0.878	0.806	0.761	0.716	0.668	0.637	0.617	0.613
1 µM, coculture fibroblast: HADF	0.913	0.848	0.819	0.7689	0.7518	0.73	0.737	0.738	0.731
1 µM, coculture fibroblast: HCFa	0.927	0.875	0.829	0.764	0.71	0.677	0.646	0.623	0.597
1 µM, coculture fibroblast: HCPF	0.956	0.87348	0.795	0.738	0.696	0.6567	0.626	0.6151	0.592
1 µM, coculture fibroblast: HHSteC	0.895	0.88	0.884	0.808	0.774	0.746	0.731	0.705	0.689
1 µM, coculture fibroblast: HMF	0.937	0.824	0.7337	0.675	0.625	0.578	0.547	0.528	0.517
1 µM, coculture fibroblast: HPFa	0.891	0.841	0.835	0.759	0.74	0.696	0.689	0.671	0.636
1 µM, coculture fibroblast: HUF	0.916	0.864	0.865	0.801	0.759	0.736	0.729	0.717	0.703
1 µM, coculture fibroblast: Hs5	0.954	0.873	0.837	0.79	0.759	0.724	0.711	0.695	0.684
1 µM, coculture fibroblast: Hs27A	0.952	0.909	0.851	0.937	0.916	0.922	0.924	0.913	0.884
1 µM, coculture fibroblast: Hs343T	0.923	0.808	0.724	0.6476	0.608	0.572	0.56	0.556	0.543
1 µM, coculture fibroblast: WS1	0.8717	0.804	0.818	0.764	0.717	0.704	0.688	0.69	0.691

Values are relative to the signal before dosing, not to a vehicle control; the signal also falls without drug.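 Fibroblast labels denote human fibroblasts, mainly primary ones from uterus (C12385, HUF), lung (H6013), bone (Hs27A), adrenal (HADF) and skin (WS1), plus mammary HMF and breast cancer-associated Hs343T. Cancer cells are basal-like or mesenchymal-like triple-negative breast cancer lines. A hit is a response shift exceeding 3x replicate standard deviation. The tissue of the other fibroblasts is not given here.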
